# According to the supplement of paper PMC8728848:
# This is one part of the list.
# Tests used:
# Assay in all cases: glycan array binding signal (z-score within array); higher = stronger binding
# Details in all cases: glycan notation: IUPAC condensed, linker removed
# [1] = target: Neu5Ac(a2-6)Gal(b1-4)GlcNAc(b1-2)Man(a1-3)[Neu5Ac(a2-3)Gal(b1-4)GlcNAc(b1-2)Man(a1-6)]Man(b1-4)GlcNAc(b1-4)GlcNAc
# How it was run: (§1)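 Glycan array binding is given as a within-array Z-score, which can be read as non-binding when negative. The arrays, 3228 of them, came from the Consortium for Functional Glycomics database and were retained only where the protein sequence was available. Z-scores were averaged across arrays of the same protein sequence at different concentrations or buffers and across linkers.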
# [2] = target: Neu5Ac(a2-6)Gal(b1-4)GlcNAc(b1-2)Man(a1-3)[Neu5Ac(a2-6)Gal(b1-4)GlcNAc(b1-2)Man(a1-6)]Man(b1-4)GlcNAc(b1-4)GlcNAc
# How it was run: as §1
# [3] = target: Neu5Ac(a2-6)Gal(b1-4)GlcNAc(b1-2)Man(a1-3)[Neu5Ac(a2-6)Gal(b1-4)GlcNAc(b1-2)Man(a1-6)]Man(b1-4)GlcNAc(b1-4)[Fuc(a1-6)]GlcNAc
# How it was run: as §1
# [4] = target: Neu5Ac(a2-6)Gal(b1-4)GlcNAc(b1-2)Man(a1-6)Man(b1-4)GlcNAc(b1-4)GlcNAc
# How it was run: as §1
# [5] = target: Neu5Ac(a2-6)Gal(b1-4)GlcNAc(b1-2)Man(a1-6)[Gal(b1-4)GlcNAc(b1-2)Man(a1-3)]Man(b1-4)GlcNAc(b1-4)GlcNAc
# How it was run: as §1
# [6] = target: Neu5Ac(a2-6)Gal(b1-4)GlcNAc(b1-2)Man(a1-6)[GlcNAc(b1-2)Man(a1-3)]Man(b1-4)GlcNAc(b1-4)GlcNAc
# How it was run: as §1
# [7] = target: Neu5Ac(a2-6)Gal(b1-4)GlcNAc(b1-2)Man(a1-6)[Man(a1-3)]Man(b1-4)GlcNAc(b1-4)GlcNAc
# How it was run: as §1
# [8] = target: Neu5Ac(a2-6)Gal(b1-4)GlcNAc(b1-2)[Neu5Ac(a2-6)Gal(b1-4)GlcNAc(b1-4)]Man(a1-3)[GlcNAc(b1-4)][Neu5Ac(a2-6)Gal(b1-4)GlcNAc(b1-2)[Neu5Ac(a2-6)Gal(b1-4)GlcNAc(b1-6)]Man(a1-6)]Man(b1-4)GlcNAc(b1-4)GlcNAc
# How it was run: as §1
# [9] = target: Neu5Ac(a2-6)Gal(b1-4)GlcNAc(b1-2)[Neu5Ac(a2-6)Gal(b1-4)GlcNAc(b1-4)]Man(a1-3)[GlcNAc(b1-4)][Neu5Ac(a2-6)Gal(b1-4)GlcNAc(b1-4)Man(a1-6)]Man(b1-4)GlcNAc(b1-4)GlcNAc
# How it was run: as §1
# [10] = target: Neu5Ac(a2-6)Gal(b1-4)GlcNAc(b1-2)[Neu5Ac(a2-6)Gal(b1-4)GlcNAc(b1-6)]Man(a1-6)[Neu5Ac(a2-6)Gal(b1-4)GlcNAc(b1-2)Man(a1-3)][GlcNAc(b1-4)]Man(b1-4)GlcNAc(b1-4)GlcNAc
# How it was run: as §1
# [11] = target: Neu5Ac(a2-6)Gal(b1-4)GlcNAc(b1-3)Gal(b1-3)GlcNAc
# How it was run: as §1
# [12] = target: Neu5Ac(a2-6)Gal(b1-4)GlcNAc(b1-3)Gal(b1-4)GlcNAc
# How it was run: as §1
# [13] = target: Neu5Ac(a2-6)Gal(b1-4)GlcNAc(b1-3)Gal(b1-4)GlcNAc(b1-2)Man(a1-3)[Neu5Ac(a2-6)Gal(b1-4)GlcNAc(b1-3)Gal(b1-4)GlcNAc(b1-2)Man(a1-6)]GalNAc
# How it was run: as §1
# [14] = target: Neu5Ac(a2-6)Gal(b1-4)GlcNAc(b1-3)Gal(b1-4)GlcNAc(b1-3)Gal(b1-4)GlcNAc
# How it was run: as §1
# [15] = target: Neu5Ac(a2-6)Gal(b1-4)GlcNAc(b1-3)Gal(b1-4)GlcNAc(b1-3)Gal(b1-4)GlcNAc(b1-2)Man(a1-3)[Neu5Ac(a2-6)Gal(b1-4)GlcNAc(b1-3)Gal(b1-4)GlcNAc(b1-3)Gal(b1-4)GlcNAc(b1-2)Man(a1-6)]GalNAc
# How it was run: as §1
# [16] = target: Neu5Ac(a2-6)Gal(b1-4)GlcNAc(b1-3)Gal(b1-4)GlcNAc(b1-3)GalNAc
# How it was run: as §1
# [17] = target: Neu5Ac(a2-6)Gal(b1-4)GlcNAc(b1-3)Gal(b1-4)GlcNAc(b1-3)[Neu5Ac(a2-6)Gal(b1-4)GlcNAc(b1-3)Gal(b1-4)GlcNAc(b1-6)]GalNAc
# How it was run: as §1
# [18] = target: Neu5Ac(a2-6)Gal(b1-4)GlcNAc(b1-3)Gal(b1-4)GlcNAc(b1-6)[Gal(b1-3)]GalNAc
# How it was run: as §1
# [19] = target: Neu5Ac(a2-6)Gal(b1-4)GlcNAc(b1-3)Gal(b1-4)[Fuc(a1-3)]GlcNAc(b1-3)Gal(b1-4)[Fuc(a1-3)]GlcNAc
# How it was run: as §1
# [20] = target: Neu5Ac(a2-6)Gal(b1-4)GlcNAc(b1-3)GalNAc
# How it was run: as §1
# [21] = target: Neu5Ac(a2-6)Gal(b1-4)GlcNAc(b1-3)[Neu5Ac(a2-6)Gal(b1-4)GlcNAc(b1-6)]GalNAc
# How it was run: as §1
# [22] = target: Neu5Ac(a2-6)Gal(b1-4)GlcNAc(b1-6)GalNAc
# How it was run: as §1
# [23] = target: Neu5Ac(a2-6)Gal(b1-4)GlcNAc(b1-6)[Gal(b1-3)GlcNAc(b1-3)]Gal(b1-4)Glc
# How it was run: as §1
# [24] = target: Neu5Ac(a2-6)Gal(b1-4)GlcNAc(b1-6)[Gal(b1-3)]GalNAc
# How it was run: as §1
# [25] = target: Neu5Ac(a2-6)Gal(b1-4)GlcNAc6S
# How it was run: as §1
# Neu5Ac(a2-6)GalNAc = target: Neu5Ac(a2-6)GalNAc
# How it was run: as §1
# [26] = target: Neu5Ac(a2-6)GalNAc(b1-4)GlcNAc
# How it was run: as §1
# [27] = target: Neu5Ac(a2-6)GalNAc(b1-4)GlcNAc6S
# How it was run: as §1
# [28] = target: Neu5Ac(a2-6)GlcNAc(b1-4)GlcNAc
# How it was run: as §1
# [29] = target: Neu5Ac(a2-6)GlcNAc(b1-4)GlcNAc(b1-4)GlcNAc
# How it was run: as §1
binder,measurement,setting,value
PX14343G-pdi-535-24-535 (Parabacteroides distasonis) (protein) LDTVPKDQLAPSTTWQTEADAKGFIVGCYKDLLDGNTLLYLDCGSDIGYNNFPWEGFRPWGDGSLSSSNPGQILYDYKSIRKANTFLENVDKVTFSSDAVKANYVAQAKAIRAYKYFLMNWWYGGVPIISSYSSADEAKVERNTEQEVRDYIAKDLDEALAGIAEAPEARGYIAKGAVLAIKMREALYYGDWQKAKDAAKAIIDLKQYELDPDYTNLFKVSGVDSKEIILADQNIETLDGLGTIGQMYNNVDQGWSSIVPTQNLVDMYEMSDGLTKEESKTYDAKHPFANRDPRMAMTILYPGRDWRGDVLNTLDEKLQDGTVNKNFPTYTDNASKSALTWAKYLDPMDQYGDVWSSGACPIVFRYAEVLLTYAEAANELSGPSDEIYGYLNQIRQRVGMGEVDKAKYGTKDKLRELIRRERTVELAGEGLRRADIVRWQEDGKMLAEKVMNGDLLRVTGTINYGESEPTKRAEITGTAVIETRQFSSRNRYLPIPQTSMDKNPNLKQNPGY,glycan array binding signal (z-score),[1],0.242
same,glycan array binding signal (z-score),[2],-0.872
same,glycan array binding signal (z-score),[3],1.36
same,glycan array binding signal (z-score),[4],0.034
same,glycan array binding signal (z-score),[5],-0.943
same,glycan array binding signal (z-score),[6],0.112
same,glycan array binding signal (z-score),[7],0.156
same,glycan array binding signal (z-score),[8],0.879
same,glycan array binding signal (z-score),[9],0.881
same,glycan array binding signal (z-score),[10],-0.043
same,glycan array binding signal (z-score),[11],-0.172
same,glycan array binding signal (z-score),[12],1.44
same,glycan array binding signal (z-score),[13],-0.316
same,glycan array binding signal (z-score),[14],0.421
same,glycan array binding signal (z-score),[15],1.49
same,glycan array binding signal (z-score),[16],0.038
same,glycan array binding signal (z-score),[17],-0.546
same,glycan array binding signal (z-score),[18],-0.96
same,glycan array binding signal (z-score),[19],-0.479
same,glycan array binding signal (z-score),[20],-0.432
same,glycan array binding signal (z-score),[21],-0.163
same,glycan array binding signal (z-score),[22],-0.863
same,glycan array binding signal (z-score),[23],-0.797
same,glycan array binding signal (z-score),[24],-0.369
same,glycan array binding signal (z-score),[25],-0.215
same,glycan array binding signal (z-score),Neu5Ac(a2-6)GalNAc,-0.874
same,glycan array binding signal (z-score),[26],-0.103
same,glycan array binding signal (z-score),[27],-0.091
same,glycan array binding signal (z-score),[28],-0.538
same,glycan array binding signal (z-score),[29],-0.581

# Some of the entries so far, bar-delimited:
binder | measurement | setting | value
PX14343G-pdi-535-24-535 (Parabacteroides distasonis) (protein) LDTVPKDQLAPSTTWQTEADAKGFIVGCYKDLLDGNTLLYLDCGSDIGYNNFPWEGFRPWGDGSLSSSNPGQILYDYKSIRKANTFLENVDKVTFSSDAVKANYVAQAKAIRAYKYFLMNWWYGGVPIISSYSSADEAKVERNTEQEVRDYIAKDLDEALAGIAEAPEARGYIAKGAVLAIKMREALYYGDWQKAKDAAKAIIDLKQYELDPDYTNLFKVSGVDSKEIILADQNIETLDGLGTIGQMYNNVDQGWSSIVPTQNLVDMYEMSDGLTKEESKTYDAKHPFANRDPRMAMTILYPGRDWRGDVLNTLDEKLQDGTVNKNFPTYTDNASKSALTWAKYLDPMDQYGDVWSSGACPIVFRYAEVLLTYAEAANELSGPSDEIYGYLNQIRQRVGMGEVDKAKYGTKDKLRELIRRERTVELAGEGLRRADIVRWQEDGKMLAEKVMNGDLLRVTGTINYGESEPTKRAEITGTAVIETRQFSSRNRYLPIPQTSMDKNPNLKQNPGY | glycan array binding signal (z-score) | [20] | -0.432
same | glycan array binding signal (z-score) | [21] | -0.163
